Measurements: PubChem BioAssay AID2685 (National Center for Advancing Translational Sciences (NCATS), 2010)
Screen size: about 320,000 compounds; about 2,100 (0.66%) were called active. The shares of active, inactive and inconclusive entries below differ from those in the screen. Calls come from the whole dose curve; as a rule, active = well fitted inhibition curve with a large enough effect in the signal ratio, with a control signal flat (not every such curve was filed as active); inconclusive = small, poorly fitted or top-dose-only effect, or effect the other way, or a change in a side signal; inactive = flat fitted curve, though single readings scatter; the % refers to the signal ratio. A potency beside an inconclusive call is a rough fit, not a confirmed value.
% is set by controls: 0 for no effect and ±100 for the full control effect; potency is the fitted concentration of half-maximal effect.

Test: qHTS Assay for Lipid Storage Modulators in Drosophila S3 Cells
Details: BODIPY lipid droplet fluorescence, 18-24 h, cells fed with added oleic acid; lipid storage change, negative = inhibition: at 46.1 µM (top of the series) unless noted
Outline: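 Drosophila S3 cells got compounds at several concentrations plus oleic acid (400 uM solution). Laser-scanning cytometry with 488 nm excitation read lipid droplets at 500-530 nm and cells at 575-640 nm. Percent activity was relative to 20 uM Triacsin C.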
In the case of Nc1ccc(NC(=O)CCN2CCOCC2)cc1, the lipid storage change, negative = inhibition is reported as inconclusive: 16.1%. For O=C(Cc1ccccn1)c1ccc(F)cc1, the lipid storage change, negative = inhibition was inconclusive: -40.9%. For O=C(Cn1nnc(-c2ccc3c(c2)OCO3)n1)Nc1ccccc1C(=O)O, the Potency was inconclusive: 16.4 µM [activator, single point]. For CCN(CCn1cccn1)Cc1cn[nH]c1-c1ccc(OC)cc1F, the Potency was inconclusive: 6.51 µM [falling, single point]. In the case of Cn1c(=O)n(C)c2cc([N+](=O)[O-])c(N3CCN(CCO)CC3)cc21, the lipid storage change, negative = inhibition is reported as inconclusive: -21.4%. With COc1cc(OC)c2c(C)cc(=O)oc2c1C(CCN1CCOCC1)c1ccc(N(C)C)cc1 (stereo not drawn) the lipid storage change, negative = inhibition was inconclusive: 14.6%. With O=S(=O)(NCCN1CCOCC1)c1cc(Cl)ccc1Cl the lipid storage change, negative = inhibition was inconclusive: -14.4%. In the case of Cc1cc(C)nc(N2CCC(C(=O)NNC(=O)c3ccccc3)CC2)n1, the Potency is reported as inconclusive: 5.17 µM [activator, single point]. For COc1ccc(S(=O)(=O)N2CCC(c3cc(-c4cccc5ccccc45)n[nH]3)CC2)cc1, the lipid storage change, negative = inhibition was inconclusive: 0.871%. For O=C(NCC(=O)N1CCN(c2ccccc2)CC1)c1ccc(Cl)cc1, the Potency was inconclusive: 6.51 µM [activator, full curve, poor fit]. With CCCCC(CC)CNC(=O)CN(C)S(=O)(=O)c1cccc2nsnc12 (stereo not drawn) the lipid storage change, negative = inhibition was inconclusive: 54.4%. For Cc1ccc2[nH]c3c(c2c1)CN(C(=O)CN1CC(C)OC(C)C1)CC3 (stereo not drawn), the Potency was inconclusive: 3.66 µM [activator, full curve]. In the case of O=C(Nc1ccc(OC(F)F)c(Cl)c1)C(c1ccccc1)c1ccccc1, the lipid storage change, negative = inhibition is reported as inconclusive: -27.1%. In the case of Clc1ccc(SCCOCCN2CCOCC2)cc1, the Potency is reported as inconclusive: 11.6 µM [activator, partial curve]. For Cc1ccc(NC2=CC(=O)CC(C)(C)C2)cc1F, the lipid storage change, negative = inhibition was inconclusive: 168%. For C/C(=N\OCC(=O)Nc1nc2ccccc2s1)c1ccccc1, the Potency was inconclusive: 4.11 µM [activator, partial curve, poor fit]. For CCN(CC)S(=O)(=O)c1cccc(NC(=O)CCNC(=O)c2ccc([N+](=O)[O-])cc2)c1, the Potency was inconclusive: 14.6 µM [falling, single point]. With CCN(CC)C(=O)CSc1nnc(-n2nc(C)cc2C)c2ccccc12 the Potency was inconclusive: 2.91 µM [rising, single point]. With O=C(CSc1nnc(-c2ccncc2)n1-c1ccc(Cl)cc1)N1CCOCC1 the Potency was inconclusive: 14.6 µM [activator, partial curve]. With COC(=O)Nc1nnc(/C=C/c2ccc(OC)cc2)s1 the lipid storage change, negative = inhibition was inconclusive: 33.2%. With O=C(O)C/C(=C\c1cc2c(cc1Br)OCO2)c1nc2ccccc2s1 the lipid storage change, negative = inhibition was inconclusive: 441%. In the case of COC(=O)Cc1[nH]nc2c1C(c1c[nH]c3ccccc13)C(C#N)=C(N)O2 (stereo not drawn), the lipid storage change, negative = inhibition is reported as inconclusive: 48.6%. With Oc1c(Cl)cc(Cl)cc1/C=N/c1ncn[nH]1 the lipid storage change, negative = inhibition was inconclusive: -189%. With CC(=O)c1ccc(NC(=O)CN(c2c(C)cccc2C)S(C)(=O)=O)cc1 the lipid storage change, negative = inhibition was inconclusive: -32.3%. In the case of CC(C)n1c(N2CCN(C(=O)Nc3ccccc3)CC2)nc2ccccc21, the Potency is reported as inconclusive: 32.6 µM [falling, single point]. With Cc1ccc(S(=O)(=O)N2CCCCC2)cc1NC(=O)COC(=O)Cc1cccc2ccccc12 the Potency was inconclusive: 1.84 µM [falling, partial curve]. With COc1ccc2cc3cc(C(=O)NC(C)C)oc3nc2c1 the Potency was inconclusive: 0.92 µM [activator, full curve]. In the case of COC(=O)c1ccc(-n2nnnc2SCC(=O)Nc2ccccc2OC)cc1, the Potency is reported as inconclusive: 6.51 µM [activator, partial curve, poor fit]. With O=C(O)c1cc([N+](=O)[O-])c(NCc2cccnc2)c([N+](=O)[O-])c1 the lipid storage change, negative = inhibition was inconclusive: -18.5%. For CCOc1cc(S(=O)(=O)Nc2ccccn2)ccc1F, the lipid storage change, negative = inhibition was inconclusive: -48.9%. With Cc1ccc(OC(=O)c2cncc(Br)c2)c(C)c1 the lipid storage change, negative = inhibition was inconclusive: 21.8%. In the case of Cc1cc2nc(CO)[nH]c2cc1C, the lipid storage change, negative = inhibition is reported as inconclusive: 14.4%. With CC1(C)C(=O)CC[C@]2(C)C3C(=O)C=C4[C@H]5C[C@@](C)(C(=O)O)CC[C@]5(C)CC[C@]4(C)[C@]3(C)CC[C@@H]12 (stereo partly drawn) the lipid storage change, negative = inhibition was inconclusive: -16.5%. With CC(=O)Nc1ccc(C(=O)Nc2cc(C)on2)cc1 the lipid storage change, negative = inhibition was inconclusive: 7.64%. For Cc1ccc(S(=O)(=O)N(CCC(=O)O)c2ccccc2)cc1, the lipid storage change, negative = inhibition was inconclusive: -13.4%. In the case of CC(=O)N(c1ccc(Cl)cc1)c1nc(C)cc(C)c1C#N, the lipid storage change, negative = inhibition is reported as inconclusive: 26.1%. With Cc1cc(NC(=O)c2ccc(F)c(S(=O)(=O)N3CCCCC3)c2)no1 the Potency was inconclusive: 25.9 µM [activator, single point]. With CC(Cc1ccccc1)NC(=S)CN1CCCC1=S (stereo not drawn) the lipid storage change, negative = inhibition was inconclusive: 12.4%. In the case of Nc1c(C(=O)N/N=C/c2cccnc2)cnn1-c1ccccc1, the lipid storage change, negative = inhibition is reported as inconclusive: 16.9%. In the case of COc1ccc(-c2cc(C(=O)NN)[nH]n2)cc1OC, the lipid storage change, negative = inhibition is reported as “inactive”. For Cc1ccc(N2CCN(C(=O)c3cc(C(=O)c4ccccc4C)c[nH]3)CC2)c(C)c1, the Potency was inconclusive: 32.6 µM [falling, single point]. With Cc1cc2nncn2c(Cc2ccccc2)n1 the lipid storage change, negative = inhibition was inconclusive: -4.83%. With COc1ccccc1CCNC(=O)c1cnn2c(C(F)F)cc(C)nc12 the lipid storage change, negative = inhibition was inconclusive: -5.23%. With COc1ccc(C(=O)OCC(=O)NC(C)CCc2ccccc2)c(OC)c1 (stereo not drawn) the Potency was inconclusive: 13 µM [falling, partial curve, poor fit]. For CC(C)(C)N1CC(C(=O)Nc2ccc(S(=O)(=O)N3CCCCC3)cc2)CC1=O (stereo not drawn), the lipid storage change, negative = inhibition was “inconclusive”. For COc1ccc(C(=O)Nc2nc(C)c3cc4c(cc3n2)OCO4)cc1, the lipid storage change, negative = inhibition was inconclusive: 13.1%. With CN(c1ccc(C(=O)N2CCN(Cc3ccccc3)CC2)cc1)S(=O)(=O)c1ccc(Cl)cc1 the lipid storage change, negative = inhibition was inconclusive: -50.7%. In the case of Cc1ccc(C)c(S(=O)(=O)NCc2ccc3c(c2)OCO3)c1, the Potency is reported as inconclusive: 2.06 µM [activator, partial curve, poor fit].
